The record followed here is patent US20120095085.

Sequences of proteins named here, by UniProt entry; tags and fusion partners are left off. A change or cut given only in a name is not applied to a line headed by its entry.
UniProt Q9P126: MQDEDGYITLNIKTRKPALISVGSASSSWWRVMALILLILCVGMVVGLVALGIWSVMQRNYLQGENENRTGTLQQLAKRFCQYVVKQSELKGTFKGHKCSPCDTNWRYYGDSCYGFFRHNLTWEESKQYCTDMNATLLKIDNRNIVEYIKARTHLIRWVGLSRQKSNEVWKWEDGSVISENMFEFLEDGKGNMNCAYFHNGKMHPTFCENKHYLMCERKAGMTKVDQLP

The exact form of at least one protein or probe is not confirmed. Negatives hold for the conditions tested.

The target of the first series is CLEC-2 extracellular domain (Homo sapiens) (UniProt Q9P126). Kind of series: FP filter. As to conditions: 2'-F C and U; 2'-OH A and G; 3' idT; buffer F, 37 C; purified recombinant protein; protein details: N-terminal His10, R&D Systems 1718-CL-050; label: 32P 5' …; variant of S2-20.
In general, Kd refers to the concentration at which binding is half-saturated. Turning to GAUGCGGACUGGGCUCAUAUUCCCGCGCAUC [RB587], the equilibrium dissociation constant (Kd) was found to be 2.9 nM.

The same series, now with this note: 2'-F C and U; 2'-OH A and G; 3' idT; negative control, does not bind; buffer F, 37 C; purified recombinant protein; protein details: N-terminal His10, R&D Systems 1718-CL-050; label: 32P 5' end; variant of RB587.
In the case of GAUGCGCACUGGGCUCAUAUUCCCGCGCAUC [RB588], the Kd is above 60 nM.

The same series, now with this note: 2'-F C and U; 2'-OH A and G; Kd listed as dead; binding abolished; buffer F, 37 C; purified recombinant protein; protein details: N-terminal His10, R&D Systems 1718-CL-050; label: 32P 5' end; variant of ….
For the sequence “GGGAGGACGAUGCGGACUGGGCUCAUAUUCCCG [S2-20 T5]”, the binding result is “no binding”.

Still in this series, the particulars now being: 2'-F C and U; 2'-OH A and G; buffer F, 37 C; purified recombinant protein; protein details: N-terminal His10, R&D Systems 1718-CL-050; label: 32P 5' end; variant of S2-20.
Consider “GGGAGAGCGGACUGGGCUCAUAUUCCCGCGCUC [S2-20 T7]”, for which the dissociation constant (Kd) was 3 nM.
Turning to “GGGAGAUCGGACUGGGCUCAUAUUCCCGCGAUC [S2-20 T8]”, the equilibrium dissociation constant (Kd) was 1.6 nM.
Same read-out and setting: to “GGGAGAUGCGGACUGGGCUCAUAUUCCCGCGCAUC [S2-20 T6]” belongs 1 nM; to “GGGAGAUGGGACUGGGCUCAUAUUCCCGCCAUC [S2-20 T9]”, 18.7 nM; to “GGGAGGACGAUGCGGACUGGGCUCAUAUUCCCGCGCAUC [S2-20 T4]”, 1.4 nM.
On the same count and under the same terms, the same measure for “GGGAGGACGAUGCGGACUGGGCUCAUAUUCCCGCGCAUCUUACUA [S2-20 T3]”: 2.2 nM; for “GGGAGGACGAUGCGGACUGGGCUCAUAUUCCCGCGCAUCUUACUACCUC [S2-20 T2]”: 2.8 nM.
As for “GGGAGGACGAUGCGGACUGGGCUCAUAUUCCCGCGCAUCUUACUACCUCGGUUAU [S2-20 T1]”, the dissociation constant Kd was 4.6 nM.
Still for that read-out and setting: to “GGGAUGCGGACUGGGCUCAUAUUCCCGCGCAUC [S2-20 T10]” belongs 2.2 nM.

The series is the same for the next values; noted with them: 2'-F C and U; 2'-OH A and G; buffer F, 37 C; purified recombinant protein; protein details: N-terminal His10, R&D Systems 1718-CL-050; label: 32P 5' end; variant of S2-20 T4.
For the sequence “GGGAGGACGAUGCGGACUGGGCUCAGAUUCCCGCGCAUC [S2-20 T4 Mut32]”, the Kd is 12.4 nM.
On the same count and under the same terms, to “GGGAGGACGAUGCGGGCUGGGCUCAUAUUCCCGCGCAUC [S2-20 T4 Mut31]” belongs 4.3 nM.
Consider “GGGAGGACGAUGCGGUCUGGGCUCAUAUUCCCGCGCAUC [S2-20 T4 Mut30]”, for which the Kd worked out at 6.8 nM.

Still in this series, the particulars now being: 2'-F C and U; 2'-OH A and G; buffer F, 37 C; purified recombinant protein; protein details: N-terminal His10, R&D Systems 1718-CL-050; label: 32P 5' end; variant of S2-20 T6.
Consider “GGGAGAUGCGCUCUGGGCUCAUAUUCCCGCGCAUC [S2-20 Mut1]”, for which the Kd was above 60 nM.
For the sequence “GGGAGAUGCGGACUGGGCUCAAUUUCCCGCGCAUC [S2-20 Mut4]”, the Kd was above 60 nM.
In the case of “GGGAGAUGCGGACUGGGCUCAUAAACCCGCGCAUC [S2-20 Mut5]”, the Kd was above 60 nM.
In the case of “GGGAGAUGCGGACUGGGCUCAUAUUCCCGCGCAUCUC [S2-20 T6 ext8bp]”, the Kd came to 3.9 nM.
With “GGGAGAUGCGGACUGGGCUCAUAUUCCCGCGCAUCUCCC [S2-20 T6 ext10bp]”, the Kd is 4.6 nM.
Consider “GGGAGAUGCGGACUGGGCUGUUAUUCCCGCGCAUC [S2-20 Mut3]”, for which the Kd was above 60 nM.
For “GGGAGAUGCGGACUGGGGACAUAUUCCCGCGCAUC [S2-20 Mut2]”, the Kd is above 60 nM.
Still for that read-out and setting: to “GGGAGAUGCGGAGUGGGCUCAUAUUCCCGCGCAUC [S2-20 Mut6]” belongs above 60 nM; to “GGGAGAUGCGGUCUGGGCUCAUAUUCCCGCGCAUC [S2-20 Mut8]”, 3.5 nM.

The series is the same for the next values; noted with them: 2'-F C and U; 2'-OH A and G; buffer F, 37 C; purified recombinant protein; protein details: N-terminal His10, R&D Systems 1718-CL-050; label: 32P 5' end; variant of S2-20 ….
For the sequence “GGGAUGCGAACUGGGCUCAUAUUCCCGCGCAUC [S2-20 T10 Mut25]”, the dissociation constant (Kd) is above 60 nM.
As to “GGGAUGCGGACUGGGCACAUAUUCCCGCGCAUC [S2-20 T10 Mut10]”, the Kd was above 60 nM.
For the sequence “GGGAUGCGGACUGGGCCCAUAUUCCCGCGCAUC [S2-20 T10 Mut18]”, the equilibrium dissociation constant (Kd) came to 51.7 nM.
In the case of “GGGAUGCGGACUGGGCUCAAAUUCCCGCGCAUC [S2-20 T10 Mut13]”, the dissociation constant (Kd) stood at 2.4 nM.
On the same count and under the same terms, to “GGGAUGCGGACUGGGCUCAAUUCCCGCGCAUC [S2-20 T4 Mut37]” belongs above 60 nM; to “GGGAUGCGGACUGGGCUCACAUUCCCGCGCAUC [S2-20 T10 Mut21]”, 1.7 nM; to “GGGAUGCGGACUGGGCUCAUAAUCCCGCGCAUC [S2-20 T10 Mut15]”, 30 nM.
In the case of “GGGAUGCGGACUGGGCUCAUACUCCCGCGCAUC [S2-20 T10 Mut23]”, the Kd was determined as 6.7 nM.
The same measure, in the same setting: the same measure for “GGGAUGCGGACUGGGCUCAUAUACCCGCGCAUC [S2-20 T10 Mut16]”: above 60 nM; for “GGGAUGCGGACUGGGCUCAUAUCCCCGCGCAUC [S2-20 T10 Mut24]”: above 60 nM; for “GGGAUGCGGACUGGGCUCAUCUUCCCGCGCAUC [S2-20 T10 Mut27]”: above 60 nM.
For “GGGAUGCGGACUGGGCUCAUGUUCCCGCGCAUC [S2-20 T10 Mut22]”, the dissociation constant Kd is 5.6 nM.
“GGGAUGCGGACUGGGCUCAUUUCCCGCGCAUC [S2-20 T10 Mut29]”: the equilibrium dissociation constant (Kd) was above 60 nM.
As to “GGGAUGCGGACUGGGCUCAUUUUCCCGCGCAUC [S2-20 T10 Mut14]”, the Kd is above 60 nM.
As to “GGGAUGCGGACUGGGCUCGUAUUCCCGCGCAUC [S2-20 T10 Mut20]”, the dissociation constant (Kd) worked out at 1.2 nM.
Regarding “GGGAUGCGGACUGGGCUCUAUUCCCGCGCAUC [S2-20 T10 Mut28]”, the Kd was above 60 nM.
Consider “GGGAUGCGGACUGGGCUCUUAUUCCCGCGCAUC [S2-20 T10 Mut12]”, for which the Kd was 2.4 nM.
Still for that read-out and setting: to “GGGAUGCGGACUGGGCUGAUAUUCCCGCGCAUC [S2-20 T10 Mut11]” belongs above 60 nM; to “GGGAUGCGGACUGGGCUUAUAUUCCCGCGCAUC [S2-20 T10 Mut19]”, 5.7 nM.
Turning to “GGGAUGCGGACUGGGGUCAUAUUCCCGCGCAUC [S2-20 T10 Mut9]”, the Kd was above 60 nM.
The same measure, in the same setting: to “GGGAUGCGGACUGGGUUCAUAUUCCCGCGCAUC [S2-20 T10 Mut17]” belongs 8.8 nM; to “GGGAUGCGGAUUGGGCUCAUAUUCCCGCGCAUC [S2-20 T10 Mut26]”, above 60 nM; to “GGGAUGCGUACUGGGCUCAUAUUCCCGCGCAUC [S2-20 T4 Mut33]”, above 60 nM.

The series is the same for the next values; noted with them: 2'-F C and U; 2'-OH A and G; essentially no specific binding; buffer F, 37 C; purified recombinant protein; protein details: N-terminal His10, R&D Systems 1718-CL-050; label: 32P 5' end; variant of S2-20 T6.
On to “GGGAGAUGCGCACUGGGCUCAUAUUCCCGCGCAUC [S2-20 Mut7]”, for which the dissociation constant (Kd) was above 60 nM.

The series is the same for the next values; noted with them: 2'-F C and U; 2'-OH A and G; purified recombinant protein; protein details: N-terminal His10, R&D Systems 1718-CL-050; label: 32P 5' end.
As for “GGGAGGACGAUGCGGACUGGGCUCAUAUUCCCGCGCAUCUUACUACCUCGGUUAUCAGACGACUCGCUGAGGAUCCGAGA [S2-20]”, the Kd worked out at 1.4 nM.

Still in this series, the particulars now being: 2'-F C and U; 2'-OH A and G; stem 2 U-G to C-G; buffer F, 37 C; purified recombinant protein; protein details: N-terminal His10, R&D Systems 1718-CL-050; label: 32P 5' end; variant of S2-20 T10.
As for “GGGAUGCGGACCGGGCUCAUAUUCCCGCGCAUC [S2-20 T11]”, the Kd is 66 nM.

The target of a further series is CLEC-2 (on human platelets) (Homo sapiens) (UniProt Q9P126). Description: activity in cells. As to conditions: 2'-F C and U; 2'-OH A and G; 3' idT; essentially full inhibition of rhodocytin-induced washed platelet aggregation at 0.5 uM; protein on the cell surface; variant of S2-20.
For GAUGCGGACUGGGCUCAUAUUCCCGCGCAUC [RB587], the “functional effect of the aptamer” value is reported as “active”.

The same series, now with this note: 2'-F C and U; 2'-OH A and G; 3' idT; no inhibition of rhodocytin-induced P-selectin expression at 2 uM; protein on the cell surface; variant of RB587.
In the case of GAUGCGCACUGGGCUCAUAUUCCCGCGCAUC [RB588], the “functional effect of the aptamer” value is “not active”.

The same series, now with this note: 2'-F C and U; 2'-OH A and G; essentially full inhibition of rhodocytin-induced washed platelet aggregation at 0.5 uM; protein on the cell surface.
Turning to “GGGAGGACGAUGCGGACUGGGCUCAUAUUCCCGCGCAUCUUACUACCUCGGUUAUCAGACGACUCGCUGAGGAUCCGAGA [S2-20]”, the “functional effect of the aptamer” value is listed as “active”.

The same series, now with this note: 2'-F C and U; 2'-OH A and G; no inhibition of rhodocytin-induced P-selectin expression at 2 uM; protein on the cell surface; variant of S2-20.
As for “GGGAGGACGAUGCGGACUGGGCUCAUAUUCCCG [S2-20 T5]”, the “functional effect of the aptamer” value is listed as “not active”.

The series is the same for the next values; noted with them: 2'-F C and U; 2'-OH A and G; reduces rhodocytin-induced P-selectin expression at 2 uM; protein on the cell surface; variant of S2-20.
Consider “GGGAGAUGCGGACUGGGCUCAUAUUCCCGCGCAUC [S2-20 T6]”, for which the “functional effect of the aptamer” value is “active”.
On the same count and under the same terms, to “GGGAGGACGAUGCGGACUGGGCUCAUAUUCCCGCGCAUC [S2-20 T4]” belongs “active”.
